# PubChem BioAssay AID588497 (NMMLSC, 2011)
# In all, about 360,000 compounds went through this assay and about 780 (0.22%) were called active. Inconclusive means that the source gave no clear call. Such entries were picked first, then a sample of the others. Cut-off read from the data, not from the text of the source: active = inhibition above about 35% (passing the limit was not always enough); inconclusive = no clear call, values can overlap the other calls.
# Tested on: Botulinum neurotoxin type F light chain protease (Clostridium botulinum)
# Test: BoNT/F light chain protease inhibitors, primary screen, biochemical, flow cytometry, MLPCN library (AID 588497); note: plate controls were buffer without enzyme for full effect and enzyme alone for no effect
# Settings: Multiplex microsphere protease cleavage assay, at 10 µM, active compounds read high
row,SMILES,inhibition
1,Cn1cnc2c(=O)sc3ccccc3c21,inconclusive: 13%
2,COc1ccc(Cl)cc1NC(=O)CN(C)C(=O)c1ccc(N2CCCCCC2)c([N+](=O)[O-])c1,inconclusive: -32.7%
3,Cn1cccc1-c1nc2ccccc2n1Cc1ccccc1,inconclusive: -15.3%
4,CCOC(=O)c1cn2nc(N3CCCCC3)ccc2n1,inconclusive: -46.8%
5,COc1ccc(Cl)cc1CNCCCSc1ncccn1,inconclusive: -7.5%
6,CC(=O)Nc1ccc(S(=O)(=O)N(Cc2ccco2)CC2CCCO2)cc1 (configuration not stated),inactive: 0.8%
7,CCc1cccc2[nH]c3cc([N+](=O)[O-])ccc3c12,inconclusive: 3.3%
8,CCOC(=O)/C(=C/C=C1\Sc2cc(OCC)c(OCC)cc2N1CC)C(C)=O,active: 43.7%
9,C=CCNC(=S)N1N=C(c2ccco2)CC1c1ccco1 (configuration not stated),inconclusive: -0.3%
10,COc1ccc(Cn2cc(F)c(=O)n(C)c2=O)cc1[N+](=O)[O-],inconclusive: -163%
11,FC(F)Oc1ccccc1NC(=S)NCc1ccco1,inactive: -2.9%
12,CC(NC(=O)CN1C(=O)NC2(CCCCC2)C1=O)c1ccc(S(N)(=O)=O)cc1 (configuration not stated),inactive: -16.5%
13,Cc1ccc(-c2cc(C#N)c(=O)n(Cc3c(Cl)cccc3Cl)c2)cc1,inactive: -0.6%
14,CN1CCN(C(=O)c2ccc(F)c(F)c2)CC1,inconclusive: 8.2%
15,COC(C)c1oc2c(C)c3oc(=O)cc(C)c3cc2c1C (configuration not stated),inconclusive: 4.3%
16,CCc1c(O)nc(SCC(=O)Nc2nc3ccccc3s2)n(-c2ccc(C)cc2)c1=O,inconclusive: -15.5%
17,CCN(CC(=O)Nc1ccccc1C(F)(F)F)C(=O)C1=COCCO1,inconclusive: -7.9%
18,CC(C)OC(=O)CSc1nnc(-c2cccnc2)n1Cc1ccccc1,inconclusive: 19.1%
19,O=CN1Cc2ccccc2-c2ccccc2C1,inconclusive: 8.7%
20,COc1ccc(CCN2C(=NC(=O)C(C)C)SC3CS(=O)(=O)CC32)cc1 (configuration not stated),inconclusive: -102%
21,CN1c2ccccc2Oc2ccccc21,inactive: -2.7%
22,CCOC(=O)c1c(N)sc2c(OC)c(Br)ccc12,inconclusive: -49.8%
23,COc1ccc2oc(=O)c(C(=O)NC(C)c3ccccc3)cc2c1 (configuration not stated),inconclusive: -38.9%

row,SMILES,inhibition
1,CC1CCCC(C)N1c1ccc(S(=O)(=O)N2CCOCC2)cc1Cl (configuration not stated),inactive: -14.6%
2,CN1CCN(CC(=O)NN(Cc2ccccc2)c2ccccc2)CC1,inconclusive: 32.9%
3,O=C(c1ccc(Br)c([N+](=O)[O-])c1)N1CCN(Cc2ccccc2)CC1,inactive: -0.6%
4,C/C(CC(=O)Nc1ccc2c(c1)OCO2)=N\NC(=O)OC(C)(C)C,active: 42.2%
5,Fc1ccc(N/N=C2/CCSc3sccc32)c(F)c1,inconclusive: -83%
6,CC(=O)Oc1ccc(-c2csc(Nc3ccc(Cl)cn3)n2)cc1,inconclusive: -27.5%
7,CCCCn1c(O)c(/C=N/NC(=O)c2ccncc2)c(=O)[nH]c1=O,inconclusive: -4.4%
8,NC(=O)C1CCN(c2oc(-c3ccccc3F)nc2S(=O)(=O)c2ccc(Cl)cc2)CC1,inconclusive: -6%
9,COC(=O)c1ccccc1Oc1cc(C(F)(F)F)nc(-c2ccccn2)n1,inconclusive: -15.4%
10,COc1cc2nc(CC(C)C)n(NC(=O)c3ccccc3Br)c(=O)c2cc1OC,inconclusive: -33.8%
11,O=[N+]([O-])c1cc(Cl)ccc1Nc1ccccc1,inconclusive: -23.3%
12,Cc1c(C(=O)N(Cc2ccccc2)Cc2cccnc2)cnn1-c1ccc(F)cc1,inconclusive: 55.8%
13,COCc1cc(=O)n2[nH]c(-c3ccco3)cc2n1,inconclusive: -10.4%
14,Cn1cc(CN2CCCC(CO)(Cc3ccccc3)C2)cn1 (configuration not stated),inactive: 3.8%
15,CCCCC(=O)NC(c1cccc([N+](=O)[O-])c1)c1ccc2cccnc2c1O (configuration not stated),inconclusive: 58.3%
16,N#Cc1c(N)[nH]c(=S)c(C#N)c1-c1ccccc1,inactive: 2.8%
17,Nc1nc(Nc2cccc(F)c2)nc(N2CCOCC2)c1[N+](=O)[O-],inconclusive: -78.2%
18,FC(F)(F)c1ccc(Oc2ccc3c(C(F)(F)F)cc(C(F)(F)F)nc3n2)cc1,inactive: 1.8%
19,NNC(=O)c1[nH]c(-c2ccccc2)cc1-c1ccccc1,inconclusive: 17.9%
20,Cc1cccn2c(=O)c(C=O)c(N3CCC4(CC3)OCCO4)nc12,inconclusive: -8.3%
21,COc1ccc(/C=N/n2c(-c3ccc(C)cc3)n[nH]c2=S)cc1OC,inconclusive: -36.6%
22,COc1ccc(OC)c(C(c2c(O)nc(SC)[nH]c2=O)c2c(O)nc(SC)[nH]c2=O)c1,inconclusive: -51.3%
23,O=Cc1cccc(OC(=O)/C=C/c2ccco2)c1,inconclusive: 9.3%

row,SMILES,inhibition
1,Clc1ccc(C[n+]2cc(-c3ccccc3)n3c2CCC3)cc1,inconclusive: 27.3%
2,Cc1c(C)c2c(OCC(=O)N3CCC(C(=O)O)CC3)cc3c(c2oc1=O)CCC(C)(C)O3,inactive: -5.7%
3,CCN(CC(=O)NCc1cccs1)C(=O)CCC(=O)c1ccc(F)cc1,inactive: -5%
4,COC(=O)c1cccc(CC2(C)C(=O)Nc3ccc(OC(F)(F)F)cc32)c1 (configuration not stated),inactive: -2.7%
5,Cc1ccc(OCC(=O)O/N=C(\N)Cc2ccc([N+](=O)[O-])cc2)cc1C,inconclusive: 13.4%
6,CC(C(=O)NC(=O)NC1CCCCC1)N1CCN(C(c2ccccc2)c2ccccc2)CC1 (configuration not stated),inactive: -6.8%
7,CCC1(C(N)=O)CC2C=CC1C2 (configuration not stated),inactive: -2.1%
8,Fc1ccccc1/C=N/Nc1cc(N2CCCCC2)ncn1,inconclusive: -21.6%
9,COc1cc(CNCCCN2CCOCC2)cc(Br)c1OCc1ccc(Cl)cc1,inactive: -9%
10,CCOC(=O)CSc1nnc2c3ccccc3n(C)c2n1,inconclusive: 0.9%
11,CC1=CN2C(=NC(=O)CC2(C)C(=O)N(CC(=O)NC2CCCC2)c2cc(C)cc(C)c2)C=C1 (configuration not stated),inactive: 4%
12,N#Cc1c(NC(=O)CCn2cnc3ccccc3c2=O)oc(-c2ccccc2)c1-c1ccccc1,inconclusive: -41.8%
13,O=C(CCSc1nnc2scc(-c3ccccc3)n12)Nc1nc(-c2ccccc2)ns1,inconclusive: 2.4%
14,Cc1cccn2c(=O)nc(SCC(=O)Nc3cccc4ccccc34)nc12,inconclusive: -14.4%
15,CCN1CCN(c2ccc(S(=O)(=O)N3CCCCC3)cc2NC(=O)/C=C/c2cccc(OC)c2OC)CC1,inactive: -4.6%
16,CCc1cc(/C(Cc2ccccn2)=N\O)c(O)cc1O,inactive: -13.5%
17,CC1(C)CC(=O)C2=C(C1)Nc1ccccc1S2,inconclusive: -2.4%
18,N#Cc1c(-c2cccs2)cc(-c2cccs2)[nH]c1=O,inconclusive: -56.3%
19,Cc1cc(C(=O)C(=O)N(C)C)c(C)n1-c1ccc(Cl)c(Cl)c1,inactive: 1.5%
20,CCOC(=O)C1=NOC2(C1)C(=O)Nc1ccc(OC)cc12 (configuration not stated),inactive: 3.8%
21,CCc1nn2c(N)c(/C=C3\C=Nc4ccccc43)c(=O)nc2s1,inactive: 12.5%
22,O=C(COC(=O)c1cc(S(=O)(=O)N2CCCCC2)ccc1N1CCOCC1)c1ccc(Cl)cc1,inconclusive: -34.7%
23,CC(C)Nc1nc2nonc2nc1Nc1ccccc1,inconclusive: 25.8%

# A second format for part of the listing above:
row | SMILES | inhibition
22 | COc1ccc(OC)c(C(c2c(O)nc(SC)[nH]c2=O)c2c(O)nc(SC)[nH]c2=O)c1 | inconclusive: -51.3%
23 | O=Cc1cccc(OC(=O)/C=C/c2ccco2)c1 | inconclusive: 9.3%
1 | Clc1ccc(C[n+]2cc(-c3ccccc3)n3c2CCC3)cc1 | inconclusive: 27.3%
2 | Cc1c(C)c2c(OCC(=O)N3CCC(C(=O)O)CC3)cc3c(c2oc1=O)CCC(C)(C)O3 | inactive: -5.7%
3 | CCN(CC(=O)NCc1cccs1)C(=O)CCC(=O)c1ccc(F)cc1 | inactive: -5%
4 | COC(=O)c1cccc(CC2(C)C(=O)Nc3ccc(OC(F)(F)F)cc32)c1 (configuration not stated) | inactive: -2.7%
5 | Cc1ccc(OCC(=O)O/N=C(\N)Cc2ccc([N+](=O)[O-])cc2)cc1C | inconclusive: 13.4%
6 | CC(C(=O)NC(=O)NC1CCCCC1)N1CCN(C(c2ccccc2)c2ccccc2)CC1 (configuration not stated) | inactive: -6.8%
7 | CCC1(C(N)=O)CC2C=CC1C2 (configuration not stated) | inactive: -2.1%
8 | Fc1ccccc1/C=N/Nc1cc(N2CCCCC2)ncn1 | inconclusive: -21.6%
9 | COc1cc(CNCCCN2CCOCC2)cc(Br)c1OCc1ccc(Cl)cc1 | inactive: -9%
10 | CCOC(=O)CSc1nnc2c3ccccc3n(C)c2n1 | inconclusive: 0.9%
11 | CC1=CN2C(=NC(=O)CC2(C)C(=O)N(CC(=O)NC2CCCC2)c2cc(C)cc(C)c2)C=C1 (configuration not stated) | inactive: 4%
12 | N#Cc1c(NC(=O)CCn2cnc3ccccc3c2=O)oc(-c2ccccc2)c1-c1ccccc1 | inconclusive: -41.8%
13 | O=C(CCSc1nnc2scc(-c3ccccc3)n12)Nc1nc(-c2ccccc2)ns1 | inconclusive: 2.4%
14 | Cc1cccn2c(=O)nc(SCC(=O)Nc3cccc4ccccc34)nc12 | inconclusive: -14.4%
15 | CCN1CCN(c2ccc(S(=O)(=O)N3CCCCC3)cc2NC(=O)/C=C/c2cccc(OC)c2OC)CC1 | inactive: -4.6%
16 | CCc1cc(/C(Cc2ccccn2)=N\O)c(O)cc1O | inactive: -13.5%
17 | CC1(C)CC(=O)C2=C(C1)Nc1ccccc1S2 | inconclusive: -2.4%
18 | N#Cc1c(-c2cccs2)cc(-c2cccs2)[nH]c1=O | inconclusive: -56.3%
19 | Cc1cc(C(=O)C(=O)N(C)C)c(C)n1-c1ccc(Cl)c(Cl)c1 | inactive: 1.5%
20 | CCOC(=O)C1=NOC2(C1)C(=O)Nc1ccc(OC)cc12 (configuration not stated) | inactive: 3.8%
21 | CCc1nn2c(N)c(/C=C3\C=Nc4ccccc43)c(=O)nc2s1 | inactive: 12.5%
22 | O=C(COC(=O)c1cc(S(=O)(=O)N2CCCCC2)ccc1N1CCOCC1)c1ccc(Cl)cc1 | inconclusive: -34.7%
23 | CC(C)Nc1nc2nonc2nc1Nc1ccccc1 | inconclusive: 25.8%

# Following part:

row,SMILES,inhibition
1,CC1Cc2cc(/C(O)=C3/C(=O)C(=O)N(CCCN(C)C)C3c3ccncc3)ccc2O1 (configuration not stated),inconclusive: 4%
2,O=C1CS/C(=N/N=C/c2ccco2)N1Cc1ccc(F)cc1,inconclusive: 54.3%
3,CCOCc1nnc(NC(=O)CSc2ccccc2)s1,inconclusive: -30%
4,COc1ccccc1C(=O)Nc1c[nH]c(=O)[nH]c1=O,inconclusive: 6.9%
5,Cc1ccc(S(=O)(=O)Cc2ccc(C(=O)NCc3ccc4c(c3)OCO4)o2)cc1,inactive: 2.3%
6,O=C1Cc2cc(S(=O)(=O)Nc3ccccc3Cl)cc3c2N1CCC3,inactive: 0%
7,Cc1cccc(NC(=O)c2cc3ccccc3oc2=O)c1,inconclusive: 9.4%
8,N#C/C(=C/c1ccc(-c2ccc([N+](=O)[O-])cc2)o1)C(=O)Nc1nc(-c2cccs2)cs1,inactive: 0.5%
9,CCCCc1cc(-c2n[nH]c(=S)o2)c2ccccc2n1,inconclusive: -25.1%
10,CCC(C)C(NC(=O)c1ccccc1NC(=O)c1ccco1)C(=O)O (configuration not stated),inconclusive: -28.4%
11,Nc1ccc(S(=O)(=O)N2CCCC2C(=O)O)cc1 (configuration not stated),inactive: -11.3%
12,CSc1ccccc1CNc1nc(NCC2CC2)nc2ccsc12,inactive: 1.8%
13,CC(=O)Nc1ccc(NC(=O)c2ccccc2N(Cc2ccccc2)S(C)(=O)=O)cc1,inconclusive: -46.2%
14,CCOc1ccccc1NC(=S)N1CCN(c2ccc(O)cc2)CC1,inconclusive: -19.1%
15,COc1ccc(CCC(C)NCc2ccc(Cl)c(Cl)c2)cc1 (configuration not stated),inconclusive: -71.5%
16,CN1CCN(CCNC(=O)Nc2ccc(Cl)cc2)CC1,inconclusive: 5%
17,C/C(=N\NC(=O)c1ccccc1O)c1c(O)cc(C)oc1=O,inactive: 17%
18,O=C(C(=O)N1CCCCCC1)c1c[nH]c2ccccc12,inconclusive: -19.8%
19,CC(C(=O)Nc1ccon1)N1C(=O)c2ccccc2S1(=O)=O (configuration not stated),inconclusive: 25.2%
20,COc1ccc2c(-c3ccc(S(N)(=O)=O)cc3)c(-c3ccc(S(C)(=O)=O)cc3)sc2c1,inactive: -2.5%
21,O=C(O)c1ccn2c(C(=O)c3ccccc3)c(-c3ccccc3)cc2c1,inconclusive: 47%
22,O=C(NCc1ccc(F)cc1F)[C@@H]1CCCN1C(=O)[C@@H]1CCCN1C(=O)c1ccccc1,inactive: 0.6%
23,NNC(=O)c1ncoc1-c1ccc(Cl)cc1,inconclusive: 30.5%
